Reference: patent US20180296691A1 (Pfizer, published 2018)
These are yes or no findings as the source states them, for the method shown. Binding can be weak; no strength is given.

B1: humanized anti-EFNA4 antibody huE15 (antibody, human IgG1, V domains shown)
VH: EVQLVESGGGLVKPGGSLRLSCAASGFTFSTYGMSWVRQAPGKGLEWVATISSGGTYTYYPDSVKGRFKISRDNAKNSLYLQMNSLRAEDTAVYYCTRHDPNDGYYFLFAYWGQGTLVTVSS
VL: EIVLTQSPGTLSLSPGERATLSCKASQSVGNNVAWYQQKPGQAPRLLIYYASNRYTGIPDRFSGSGSGTDFTLTISRLEPEDFAVYYCQQHYSSPLTFGAGTKLEIK
B2: humanized anti-EFNA4 antibody huE22 (antibody, human IgG1, kappa, V domains shown)
VH: QVQLVQSGAEVKKPGASVKVSCKASGYTFTGYYIHWVRQAPGQGLEWMGWIYPGNFNTKYNERFKGRVTMTTDTSTSTAYMELRSLRSDDTAVYYCAREDGSPYYAMDYWGQGTSVTVSS
VL: DIVMTQTPLSLSVTPGQPASISCRSSQSLVHSNGNTFLYWYLQKPGQSPQLLIYRVSNRFSGVPDRFSGSGSGTDFTLKISRVEAEDVGVYYCFQATHVPWTFGGGTKVEIKR
notes: human IgG1 / kappa; also called huE22 mAb; unconjugated huE22
B3: humanized anti-EFNA4 antibody huE47 (antibody, human IgG1, kappa, V domains shown)
VH: QVQLVQSGAEVKKPGASVKVSCKASGYTFTYFYMNWVRQAPGQGLEWVGQINPNNGGTAYAQKFQGRVTMTRDTSTSTVYMELSSLRSEDTAVYYCARWVGTHYFDYWGQGTTLTVSS
VL: EIVLTQSPATLSLSPGERATLSCRASQSVSSSSYTYIHWYQQKPGQAPRLLINFASNLESGIPARFSGSGSGTDFTLTISSLEPEDFAVYYCQHSWEIPPTFGGGTKLEIKR
notes: human IgG1 / kappa
B4: humanized anti-EFNA4 antibody huE5 (antibody, human IgG1, V domains shown)
VH: EVQLVESGGGLVQPGGSLRLSCAASGFTVTTYGVDWVRQAPGKGLEWLGVIWGGGSTNYNSALKSRFTISRDNSKNTLYLQMNSLRAEDTAVYYCASDWAYWGQGTLVTVSS
VL: DIQMTQSPSSLSASVGDRVTITCRASQNVGTNVAWFQQKPGKAPKSLIHSASYRYSGVPSRFSGSGSGTDFTLTISSLQPEDFATYYCQQYKRYPYTFGGGTKLEIK

Tests used:
[1] = target: human EFNA4 antigen (ephrin-A4 ligand) (human); assay: Biacore
[2] = target: recombinant human EFNA4 extracellular domain fused to a histidine tag (human); assay: SPR (BIAcore 2000), recombinant EFNA4 ECD-His
[3] = target: human EFNA4 antigen (ephrin-A4 ligand) (human); assay: Biacore; compared with the murine counterpart

Binder | binding [1] | binding [2] | binding [3]
B1 | binds | – | –
B2 | binds | binds | –
B3 | binds | – | –
B4 | – | – | binds
